Reference: article PMC9771724
For at least one entry, the source does not settle the construct or the ends of the probe. A weaker result is weaker than the reference pair of the same experiment. Where a protein sequence is shown, tags need not be part of it.

Target: T1, His-SOX9(1-190) DNA-binding domain fragment (UniProt P48436)
T1 sequence (looked up): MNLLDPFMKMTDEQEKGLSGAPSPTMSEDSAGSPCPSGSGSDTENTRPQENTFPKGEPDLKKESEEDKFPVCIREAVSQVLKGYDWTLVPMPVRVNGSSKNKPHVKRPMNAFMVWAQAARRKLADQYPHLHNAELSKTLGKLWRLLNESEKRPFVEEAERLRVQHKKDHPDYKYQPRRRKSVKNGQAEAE
Assay: EMSA
Conditions: poly dI-dC, 10 mM Tris-Cl pH 7.5, 5 mM MgCl2, 50 mM KCl, 1 mM DTT, 2.5% glycerol, 0.5% NP-40, 50 ng/ml poly dI-dC, 40 fmol biotinylated probe, recombinant protein, residues 1-190, protein details: His, label: biotin

[1] = text: attenuated, legend: abolished

Row | Sequence | binding result | binding result [1]
1 | CAATTTAACAATGTGTTCTTTGTCCCACAA (double strand) [c-myc-335 SOX probe WT] | binds | 
2 | CAATTTAACAATGTGTTCTGGTTCCCACAA (double strand) [c-myc-335 SOX probe 3' mut] |  | binds more weakly
3 | CAATTTAAACCTGTGTTCTGGTTCCCACAA (double strand) [c-myc-335 SOX probe 5'+3' mut] |  | binds more weakly
4 | CAATTTAAACCTGTGTTCTTTGTCCCACAA (double strand) [c-myc-335 SOX probe 5' mut] |  | binds more weakly
